Source: the supplement of paper PMC6445147
Single values of this data set are uncertain.

B1: human tRNA-Pro; a variant is named by its letters at N, in order (parent)
chain: GGCTCGTTGGTCTAGNGGTATGATTCTCGCTTAGGGTGCGAGAGGTCCCGGGTTCNNATCCCGGACGAGCCC

Assays:
[1] = variants of: B1; assay: tRNA Pol-III promoter activity, log2 (circRNA frequency / plasmid DNA frequency) (log2 ratio); higher = stronger promoter activity; details: HEK293T; construct: no Pol-II promoter ((-)CMV library)
[2] = variants of: B1; assay: tRNA 3' processing efficiency (processed reads / all reads, maximum-likelihood estimate) (fraction); higher = more efficient 3' processing; details: HEK293T; construct: no Pol-II promoter ((-)CMV library)
[3] = variants of: B1; assay: tRNA 5' processing efficiency (processed reads / all reads, maximum-likelihood estimate) (fraction); higher = more efficient 5' processing; details: HEK293T; construct: CMV Pol-II promoter ((+)CMV library, decapped)

## GGCTCGTTGGTCTAGGGGTGTGATTCTCGCTTAGGGTGCGAGAGGTCCCGGGTTCAGATCCCGGACGAGCCC
[1]
  tRNA Pol-III promoter activity (log2): 0.557
[2]
  tRNA 3' processing efficiency: 0.5

## GGCTCGTTGGTCTAGGGGTATGATTCTCGCTTAGGGTGCGAGAGATCCCGGGTTCATATCCCGGACGAGCCC
[1]
  tRNA Pol-III promoter activity (log2): 7.4
[2]
  tRNA 3' processing efficiency: 0.09

## GGCTCGTTGGTCTAGGGGTGTGATTCTCGCTTAGGGTGCGAGAGGTCCCGGGTTCAGCTCCCGGACGAGCCC
[1]
  tRNA Pol-III promoter activity (log2): 3.08
[2]
  tRNA 3' processing efficiency: 0.2

## GGCTCGTCGGTCTAAGGGTATGATTCTCGCTTAGGGTGCGAGAGGTCCCGGGTTCAGATCCCGGACGAGCCC
[1]
  tRNA Pol-III promoter activity (log2): 3.03
[2]
  tRNA 3' processing efficiency: 0.2

## GGCTCGTTGGTCTAGGGGCATGATTCTCGCTTAGGGTGCGAGAGGTCCCGGGTTCAAGCCCCGGACGAGCCC
[1]
  tRNA Pol-III promoter activity (log2): 4.58
[2]
  tRNA 3' processing efficiency: 0.36

## GGCTCGTTGGTCTAAGGGTATGATTCTCGCTTAGGGTGCGAGAGGTCCCGGGTTTAAATCCCGGACGAGCCC
[1]
  tRNA Pol-III promoter activity (log2): -0.218
[2]
  tRNA 3' processing efficiency: 0.62

## GGCTCGTTGGTCTAGAGGAATGATTCTCGCTTAGGGTGCGAGAGGTCCCGGGATCAAATCCCGGACGAGCCC
[1]
  tRNA Pol-III promoter activity (log2): 4.67
[2]
  tRNA 3' processing efficiency: 0.2

## GGCTCGTTGGTCTCGGGGTATGATTCTCGCTTAGGGTGCGAGAGGTCCCGGGTTCAGTTCCCGGACGAGCCC
[1]
  tRNA Pol-III promoter activity (log2): 3.94
[2]
  tRNA 3' processing efficiency: 0.25

## GGCTCGTTGGTCTTGGGGTTTGATTCTCGCTTAGGGTGCGAGAGGTCCCGGGTTCAATTCCCGGACGAGCCC
[1]
  tRNA Pol-III promoter activity (log2): 1.8
[2]
  tRNA 3' processing efficiency: 0.4

## GGCTCGTTGGTCTAGGGGTTTGATTCTCGCTTAGGGTGCGAGAGGTCCCGGGTTCAAGGCCCGGACGAGCCC
[1]
  tRNA Pol-III promoter activity (log2): 4.3
[2]
  tRNA 3' processing efficiency: 0.17

## GGCTCGTTGGTCTAGAGGCATGATTCTCGCTTAGGGTGCGAGAGGTCCCGGGTTTAAATCCCGGACGAGCCC
[1]
  tRNA Pol-III promoter activity (log2): 3.12
[2]
  tRNA 3' processing efficiency: 0.25

## GGCTCGTTGGTCTAGGGGTATGATTCTCGCTTAGGGTGCGAGAGGTCCCGGGTTAGAATCCCGGACGAGCCC
[1]
  tRNA Pol-III promoter activity (log2): 1.29
[2]
  tRNA 3' processing efficiency: 0.31

## GGCTCGTTGGTCTCGGGGTATGATTCTCGCTTAGGGTGCGAGAGGTCCCGGGTACAAATCCCGGACGAGCCC
[1]
  tRNA Pol-III promoter activity (log2): 1.24
[2]
  tRNA 3' processing efficiency: 0.2

## GGCTCGTTGGTCTAGGGGCGTGATTCTCGCTTAGGGTGCGAGAGGTCCCGGGTTCTAGTCCCGGACGAGCCC
[1]
  tRNA Pol-III promoter activity (log2): 4.67
[2]
  tRNA 3' processing efficiency: 0.2

## GGCTCGTTGGTCTTGGGGTATGATTCTCGCTTAGGGTGCGAGAGGTCCCGGGTTCTGATCCCGGACGAGCCC
[1]
  tRNA Pol-III promoter activity (log2): 1.94
[2]
  tRNA 3' processing efficiency: 0.62

## GGCTCGTTGGTCTTGGGGTATGATTCTCGCTTAGGGTGCGAGAGGTCCCGGGTACGAATCCCGGACGAGCCC
[1]
  tRNA Pol-III promoter activity (log2): 3.91
[2]
  tRNA 3' processing efficiency: 0.55

## GGCTCGTTGGTCTGGGGGTATGATTCTCGCTTAGGGTGCGAGAGGTCCCGGGTTCTGATCCCGGACGAGCCC
[1]
  tRNA Pol-III promoter activity (log2): 2.3
[2]
  tRNA 3' processing efficiency: 0.17

## GGCTCGTTGGTCTAGGGGTCTGATTCTCGCTTAGGGTGCGAGAGGTCCCGGGTTCATATCCCGGACGAGCCC
[1]
  tRNA Pol-III promoter activity (log2): 0.66
[2]
  tRNA 3' processing efficiency: 0.44

## GGCTCGTCGGTCTAGAGGTATGATTCTCGCTTAGGGTGCGAGAGGTCCCGGGTTCATATCCCGGACGAGCCC
[1]
  tRNA Pol-III promoter activity (log2): 2.53
[2]
  tRNA 3' processing efficiency: 0.25

## GGCTCGTTGGTCTAGGGGTTTGATTCTCGCTTAGGGTGCGAGAGGTCCCGGGATCAATTCCCGGACGAGCCC
[1]
  tRNA Pol-III promoter activity (log2): 3.26
[2]
  tRNA 3' processing efficiency: 0.5

## GGCTCGTTGGTCTAGAGGTATGATTCTCGCTTAGGGTGCGAGAGGTCCCGGGTTCTAGTCCCGGACGAGCCC
[1]
  tRNA Pol-III promoter activity (log2): 4.45
[2]
  tRNA 3' processing efficiency: 0.2

## GGCTCGTTGGTCTATGGGTATGATTCTCGCTTAGGGTGCGAGAGGTCCCGGGTTCAGATCCCGGACGAGCCC
[1]
  tRNA Pol-III promoter activity (log2): -1.51
[2]
  tRNA 3' processing efficiency: 0.33
[3]
  tRNA 5' processing efficiency: 0.5

## GGCTCGTAGGTCTAGGGGTATGATTCTCGCTTAGGGTGCGAGAGGTCCCGGGTTCATATCCCGGACGAGCCC
[1]
  tRNA Pol-III promoter activity (log2): -0.102
[2]
  tRNA 3' processing efficiency: 0.33

## GGCTCGTTGGTCTCGAGGTATGATTCTCGCTTAGGGTGCGAGAGGTCCCGGGTTCATATCCCGGACGAGCCC
[1]
  tRNA Pol-III promoter activity (log2): 4.32
[2]
  tRNA 3' processing efficiency: 0.31

## GGCTCGTTGGTCTAGCGGTATGATTCTCGCTTAGGGTGCGAGAGGTCCCGGGTTCAAACCCCGGACGAGCCC
[1]
  tRNA Pol-III promoter activity (log2): 0.384
[2]
  tRNA 3' processing efficiency: 0.26

## GGCTCGTTGGTCTAGGGGTATGATTCTCGCTTTGGGTGCGAGAGGTCCCGGGTTCAATTCCCGGACGAGCCC
[1]
  tRNA Pol-III promoter activity (log2): 6.03
[2]
  tRNA 3' processing efficiency: 0.25

## GGCTCGTTGGTCTAGGGGGATGATTCTCGCTTAGGGTGCGAGAGGTCCCGGGTTCGATTCCCGGACGAGCCC
[1]
  tRNA Pol-III promoter activity (log2): 2.13
[2]
  tRNA 3' processing efficiency: 0.25

## GGCTCGTCGGTCTAGGGGTATGATTCTCGCTTAGGGTGCGAGAGGTCCCGGGTTCAGTTCCCGGACGAGCCC
[1]
  tRNA Pol-III promoter activity (log2): 2.04
[2]
  tRNA 3' processing efficiency: 0.25

## GGCTCGTCGGTCTTGGGGTTTGATTCTCGCTTAGGGTGCGAGAGGTCCCGGGTTCAAATCCCGGACGAGCCC
[1]
  tRNA Pol-III promoter activity (log2): 6.02
[2]
  tRNA 3' processing efficiency: 0.46

## GGCTCGTTGGTCTGGGGGTTTGATTCTCGCTTAGGGTGCGAGAGGTCCCGGGATCGAATCCCGGACGAGCCC
[1]
  tRNA Pol-III promoter activity (log2): 6.53
[2]
  tRNA 3' processing efficiency: 0.5

## GGCTCGTTGGTCTAGGGGTATGATTCTCGCTTAGGGTGCGAGAGGTCCCGGGTACGGATCCCGGACGAGCCC
[1]
  tRNA Pol-III promoter activity (log2): 7.54
[2]
  tRNA 3' processing efficiency: 0.14

## GGCTCGTTGGTCTCGGGGTATGATTCTCGCTTAGGGTGCGAGAGGTCCCGGGTTCTATTCCCGGACGAGCCC
[1]
  tRNA Pol-III promoter activity (log2): 4.51
[2]
  tRNA 3' processing efficiency: 0.5

## GGCTCGTTGGTCTAGGGGAATGATTCTCGCTTAGGGTGCGAGAGGTCCCGGGTTCAACTCCCGGACGAGCCC
[1]
  tRNA Pol-III promoter activity (log2): 1.6
[2]
  tRNA 3' processing efficiency: 0.18
[3]
  tRNA 5' processing efficiency: 0.11

## GGCTCGTAGGTCTACGGGTATGATTCTCGCTTAGGGTGCGAGAGGTCCCGGGTTCAAATCCCGGACGAGCCC
[1]
  tRNA Pol-III promoter activity (log2): 0.174
[2]
  tRNA 3' processing efficiency: 0.37

## GGCTCGTTGGTCTAGGGGTATGATTCTCGCTTAGGGTGCGAGAGGTCCCGGGGTCAAGTCCCGGACGAGCCC
[1]
  tRNA Pol-III promoter activity (log2): 0.908
[2]
  tRNA 3' processing efficiency: 0.28

## GGCTCGTTGGTCTAGGGGAATGATTCTCGCTTAGGGTGCGAGAGGTCCCGGGTTCAAAACCCGGACGAGCCC
[1]
  tRNA Pol-III promoter activity (log2): 2.69
[2]
  tRNA 3' processing efficiency: 0.08

## GGCTCGTTGGTCTAGAGGTTTGATTCTCGCTTAGGGTGCGAGAGGTCCCGGGATCAAATCCCGGACGAGCCC
[1]
  tRNA Pol-III promoter activity (log2): 3.71
[2]
  tRNA 3' processing efficiency: 0.13
